Some of the results follow. These are further read-outs of the screen, such as a control signal, another cell line or another target. No call is given for them. The list favours compounds with an active or inconclusive main result. Words in brackets tell the shape of the fitted curve; partial curves, single points and poor fits give uncertain potencies.
Assay: qHTS Assay for Lipid Storage Modulators in Drosophila S3 Cells;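 on cell number change: cells counted by Cell Tracker Red CMTPX staining in the red channel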
Conditions: BODIPY lipid droplet fluorescence, 18-24 h; for cell number change: measured here: cell count max response, cells fed with added oleic acid
In short: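 Laser-scanning cytometry quantifies lipid droplet accumulation (500–530 nm total intensity; droplet/cell object ratio) in oleic acid-fed (400 uM added) Drosophila S3 cells treated with a concentration series. 20 uM Triacsin C defined 100% inhibition.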

[1] = measured here: cell number channel AC50, cells fed with added oleic acid
[2] = measured here: lipid fluorescence (Fed channel) AC50, cells fed with added oleic acid

| SMILES | cell number change [%] | AC50 [1] | AC50 [2] |
| --- | --- | --- | --- |
| COc1ccc(-n2c(C)cc(C(=O)Cn3c(NCCO)nc4ccccc43)c2C)cc1 | -0.256 | – | – |
| Cc1nn(-c2ccccc2)c2[nH]c(=O)cc(C(F)(F)F)c12 | -36.2 | 0.366 µM [falling, full curve] | – |
| COc1ccc(-n2c(SCC(=O)Nc3nccs3)nc3c(c2=O)SCC3)cc1 | – | – | 6.51 µM [rising, single point] |
| COc1ccc(-c2cc(C)no2)cc1S(=O)(=O)NCCCN1CCN(c2ccccc2)CC1 | 5.13 | – | 6.51 µM [rising, single point] |
| Nc1nonc1-c1noc(CCCOc2ccc(Cl)cc2Cl)n1 | -14.6 | – | – |
| COc1ccc(-c2nnc(-c3cccnc3)o2)cc1 | 38.1 | 18.4 µM [rising, single point] | – |
| O=C(COc1ccc2ccccc2c1)Nc1nc2ccccc2[nH]1 | -16.4 | – | 29.1 µM [rising, single point] |
| c1ccc(Cn2c(-c3cncs3)nc3ccccc32)cc1 | – | 0.291 µM [rising, full curve] | – |
| COc1ccc(CNC(=O)c2csc3c2CCCC3)cc1 | 13.3 | – | – |
| O=C(COc1cccc(Cl)c1Cl)Nc1ccc2c(c1)CCC2 | -43.9 | 20.6 µM [falling, partial curve, poor fit] | 20.6 µM [falling, partial curve, poor fit] |
| Cc1ccc2nc(/C=C/c3cccc(F)c3)ccc2c1 | 0.833 | – | 0.82 µM [rising, full curve] |
| O=C(CSc1nnc(C2CC2)n1Cc1ccccc1)Nc1cccnc1Cl | – | – | 6.51 µM [rising, partial curve] |
| O=C(CN1CCCC(O)C1)N1c2ccccc2Sc2ccc(C(F)(F)F)cc21 (stereo unspecified) | -30.8 | 11.6 µM [falling, single point] | – |
| O=C(CN1C(=O)C2CCc3[nH]c4ccccc4c3C2C1=O)N1CCCC1 (stereo unspecified) | 3.24 | 0.00461 µM [falling, full curve, poor fit] | 4.11 µM [rising, single point] |
| COc1ccc(NCC(=O)N/N=C/C(C)c2ccccc2)cc1 (stereo unspecified) | – | – | 6.51 µM [rising, single point] |
| CN(Cc1ccccc1)S(=O)(=O)c1cccc2cccnc12 | 127 | 8.2 µM [rising, partial curve] | 4.11 µM [rising, partial curve] |
| Cc1cc(=O)oc(C)c1C(=O)OCC(=O)c1ccccc1 | -18 | – | 6.51 µM [rising, single point] |
| COC(=O)CSc1nc(-c2ccccc2)c2c(c1C#N)CCCC2 | 41.1 | 36.6 µM [rising, partial curve, poor fit] | – |
| O=C(COC(=O)c1ccc2[nH]c3c(c2c1)CCCC3)Nc1ccc(Cl)cc1Cl | -3.08 | – | – |
| Cc1noc(C(=O)NCc2ccccc2)c1Cl | -19.8 | – | 0.00517 µM [rising, full curve, poor fit] |
| COc1cccc(-c2c(C#N)c(N)nc3c2c(C)nn3-c2ccccc2)c1O | – | 6.51 µM [rising, single point] | – |
| CC(=O)c1c(C(=O)O)[nH]c(C(=O)O)c1C | 86.6 | – | 16.4 µM [rising, single point] |

| SMILES | cell number change [%] | AC50 [1] | AC50 [2] |
| --- | --- | --- | --- |
| CC1CC=C(c2ccccc2)C(=S)N1 (stereo unspecified) | -33.3 | 9.2 µM [falling, partial curve] | 1.64 µM [falling, full curve] |
| COc1cc(CNn2c(C)n[nH]c2=S)cc(Br)c1OCC(=O)NC(C)(C)C | -24 | – | 29.1 µM [falling, single point] |
| COc1ccc(C)cc1NC(=O)CN1CCN(S(=O)(=O)c2ccc3ccccc3c2)CC1 | 1.5 | 1.64 µM [falling, partial curve, poor fit] | 1.64 µM [falling, partial curve, poor fit] |
| COCCn1c(=S)[nH]c2sc3c(c2c1=O)CCC(C)C3 (stereo unspecified) | -8.73 | – | – |
| Cc1ccc(S(=O)(=O)N(C)S(=O)(=O)c2ccc(C)cc2)cc1 | 8.38 | – | 7.31 µM [rising, partial curve, poor fit] |
| Cc1ccc(/C=N/n2cnnc2)s1 | -33.3 | 0.92 µM [falling, full curve] | 32.6 µM [falling, single point] |
| COC(=O)c1ccc(C2C(C#N)=C(C)NC3=C2C(=O)CC(C)(C)C3)cc1 (stereo unspecified) | -28.2 | – | 0.0731 µM [falling, full curve, poor fit] |
| COCCCn1c(=O)c2sccc2n2c(CCCC(=O)NCc3cccc(OC)c3)nnc12 | 8.02 | – | – |
| CCCn1c(N)c(N(CCOC)C(=O)c2cccc(F)c2)c(=O)[nH]c1=O | -17.1 | – | – |
| Cc1ccc(/C=C/C(=O)Nc2ccncc2)o1 | 3.5 | – | 29.1 µM [rising, single point] |
| O=C(NCc1ccccc1CN1CCCC1)c1ccc(Cl)c(S(=O)(=O)N2CCCC2)c1 | -19.9 | – | – |
| COc1ccc(C2CC(c3ccc(Cl)cc3)n3nc(N)nc3N2)cc1 (stereo unspecified) | 9.11 | – | – |
| O=C(CSc1ncc(-c2ccccc2)[nH]1)Nc1ccccc1 | 7.37 | – | – |
| O=C(COC(=O)c1ccccc1Br)Nc1ccc(F)cc1 | – | 0.461 µM [rising, full curve] | 0.731 µM [rising, full curve] |
| COc1ccc(S(=O)(=O)Nc2cc3[nH]c(=O)oc3cc2C)cc1 | -4.6 | – | – |
| COc1ccc(OCCC(=O)N2CCN(C)CC2)cc1 | 9.33 | – | 2.06 µM [rising, single point] |
| O=[N+]([O-])c1ccccc1CNCCCCCO | 22.3 | – | 0.82 µM [rising, full curve, poor fit] |
| CC(C)(C)c1ccc(C(=O)CCCSC2=C(C#N)C(c3ccco3)C3=C(CCCC3=O)N2)cc1 (stereo unspecified) | -14.3 | – | 0.164 µM [falling, partial curve, poor fit] |
| O=C(NCCC1=CCCCC1)C1CCCN(S(=O)(=O)c2cccnc2)C1 (stereo unspecified) | -9.09 | – | – |
| COCCCNC(=O)c1cn(Cc2c(F)cccc2Cl)nn1 | -22.2 | – | 0.184 µM [falling, full curve, poor fit] |
| COc1ccc(-c2cc(C(F)F)n3ncc(C(=O)n4ccnc4C)c3n2)cc1 | -32.5 | 32.6 µM [falling, single point] | – |
| Clc1ccc(OCc2nnc(-c3ccccc3Br)o2)cc1 | 0.0364 | 7.31 µM [falling, partial curve] | – |

Rewritten tab-delimited: entries from further up.
SMILES	cell number change [%]	AC50 [1]	AC50 [2]
COCCCn1c(=O)c2sccc2n2c(CCCC(=O)NCc3cccc(OC)c3)nnc12	8.02	–	–
CCCn1c(N)c(N(CCOC)C(=O)c2cccc(F)c2)c(=O)[nH]c1=O	-17.1	–	–

Carrying on.

| SMILES | cell number change [%] | AC50 [1] | AC50 [2] |
| --- | --- | --- | --- |
| COc1ccc(C(=O)c2c(-c3ccc(OC)cc3)oc3ccccc23)cc1 | -27.4 | 0.82 µM [falling, full curve, poor fit] | 0.82 µM [falling, full curve, poor fit] |
| O=C(N/N=C/c1ccc([N+](=O)[O-])cc1)c1cc(C2CC2)[nH]n1 | 34.6 | – | – |
| CC(=O)Nc1ccc(NC(=O)COC(=O)c2ccccc2C(=O)c2ccccc2)cc1 | -15.8 | – | 0.259 µM [rising, partial curve, poor fit] |
| Nc1c(N(Cc2ccco2)C(=O)c2cccc(F)c2)c(=O)[nH]c(=O)n1Cc1ccccc1 | -6.22 | – | 3.26 µM [rising, full curve, poor fit] |
| O=C(c1ccco1)N1CCCN(Cc2nc(-c3cccs3)no2)CC1 | 9.37 | – | 1.3 µM [rising, full curve, poor fit] |
| CCCCN(CC)C(=O)c1cccc(Cl)c1 | 7.47 | – | 6.51 µM [falling, single point] |
| CCOc1ccc2c(c1)C(=NNC(=O)c1ccncc1)c1cc(OCC)ccc1-2 | -45.7 | 18.4 µM [falling, partial curve] | 20.6 µM [falling, partial curve] |
| COc1ccc(S(=O)(=O)CC(=O)Nc2ccccc2Cl)cc1 | -12.6 | – | 0.731 µM [falling, partial curve, poor fit] |
| CCc1ccc(Nc2nnc(SCc3cc(=O)n4ccsc4n3)s2)cc1 | 66.2 | 8.2 µM [rising, partial curve, poor fit] | – |
| Oc1ccc(N=Nc2nccs2)c(O)c1 | 3.72 | – | 29.1 µM [falling, single point] |
| CNCc1c(OCc2ccccc2)ccc2ccccc12 | 10.6 | – | – |
| CCc1cc(=O)oc2cc(C)cc(OCC(=O)NC(Cc3ccc(Cl)cc3)C(=O)O)c12 (stereo unspecified) | 21 | – | – |
| CCCS(=O)(=O)c1c(S(=O)(=O)CCC)c2cnccn2c1C(=O)c1ccc(F)cc1 | -36.6 | 29.1 µM [falling, single point] | – |
| O=c1c(-c2ccccc2)c(-c2ccccc2)oc2cc(O)cc(O)c12 | -68.6 | 9.2 µM [falling, partial curve] | 13 µM [falling, partial curve] |
| CCN(CC)CCNC(=O)c1ccc(NC(=O)c2cn(-c3ccc(F)cc3)nc2-c2cccc(OC)c2)cc1 | -3.63 | – | – |
| COCc1[nH]nc2c1C1(C(=O)N(C)c3ccccc31)C(C#N)=C(N)O2 (stereo unspecified) | -11 | – | 0.366 µM [falling, full curve] |
| O=[N+]([O-])c1ccc(O)c(Nc2c([N+](=O)[O-])ccc3nonc23)c1 | -25 | – | 29.1 µM [falling, single point] |
| CCC(=O)N1Cc2ccccc2-c2ccccc2C1=O | – | – | 29.1 µM [rising, single point] |
| CC(=O)Nc1ccc(NC(=O)CCCc2c[nH]c3ccccc23)cc1 | -38.6 | 9.2 µM [falling, partial curve] | 11.6 µM [falling, partial curve] |
| Cc1cccn2c(=O)c3cc(C(=O)NCCN4CCOCC4)c(=N)n(CCc4ccccc4)c3nc12 | -1.05 | – | 0.146 µM [rising, partial curve, poor fit] |

A few values from the entries so far.
Under AC50 [2], CCC(=O)N1Cc2ccccc2-c2ccccc2C1=O is listed with 29.1 µM [rising, single point]
Under AC50 [2], Cc1cccn2c(=O)c3cc(C(=O)NCCN4CCOCC4)c(=N)n(CCc4ccccc4)c3nc12 is listed with 0.146 µM [rising, partial curve, poor fit]
Under AC50 [2], CC(=O)Nc1ccc(NC(=O)CCCc2c[nH]c3ccccc23)cc1 is listed with 11.6 µM [falling, partial curve]
Under AC50 [2], CC(=O)Nc1ccc(NC(=O)COC(=O)c2ccccc2C(=O)c2ccccc2)cc1 is listed with 0.259 µM [rising, partial curve, poor fit]

Source: PubChem BioAssay AID2685 (National Center for Advancing Translational Sciences (NCATS), 2010)
